In patent US20060135365A1, “Wood chip capsule for fertilizer, agriculture pesticides and plant growth regulator, process and apparatus for producing the same” (priority 2002, published 2006):
Read-outs that look alike come from different tables or passages of the source.

Assay: Ingredients quantitative analysis of Pinus densiflora wood chips soaked one week in saturated reagent solutions
Format: physicochemical
[1] = Pinus densiflora chip 30x25x5 mm, soaked one week in saturated solution, Kjeldahl
[2] = Pinus densiflora chip, soaked one week in saturated solution
[3] = Pinus densiflora chip, soaked one week
[4] = Pinus densiflora chip, soaked one week, atomic absorption or pH-meter
[5] = Pinus densiflora chip, soaked one week, Vanadate method

| SMILES | Nitrogen ppm [1] | Nitrogen content(%) [2] [%] | Phosphorous content(%) [3] [%] | Phosphorous ppm [5] [ppm] | also measured |
| --- | --- | --- | --- | --- | --- |
| N.N.O=S(=O)(O)O [(NH4)2SO4] | 107,240 ppm | 10.7 | – | – | – |
| O=P(O)(O)O [K2HPO4, Potassium phosphate] | – | – | – | – | Phosphorous content(%): 2.1%; Phosphorous ppm: 206 ppm |
| O=S(=O)([O-])[O-].[K+].[K+] [K2SO4] | – | – | – | – | Potassium content(%) [3]: 3.0%; Potassium ppm [4]: 304 ppm |
| O=P([O-])([O-])[O-].[K+].[K+].[K+] [K3P04] | – | – | 1.3 | 129 | – |
| [Cl-].[K+] [KCl, potassium chloride] | – | – | – | – | Potassium content(%): 8.6%; Potassium ppm: 862 ppm |
| O=P([O-])(O)O.[K+] [KH2PO4] | – | – | 1.5 | 149 | – |
| O=[N+]([O-])[O-].[K+] [KNO3] | 51,520 ppm | 5.2 | – | – | Potassium content(%) [3]: 6.5%; Potassium ppm [4]: 652 ppm |
| N.O=P(O)(O)O [NH4H2PO4] | 68,600 ppm | 6.9 | 1.5 | 152 | – |
| O.O.O=P([O-])(O)O.[Na+] [NaH2PO4.2H2O] | – | – | 1.8 | 183 | – |
| O=N[O-].[Na+] [NaNO2] | – | – | – | – | Nitrogen content(%): 5.6%; Nitrogen ppm: 55,720 ppm |
